The list shows a part of the results. Hit calls seldom repeat between salt and free forms of one compound.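 Kinases, fused to nanoluciferase, were expressed in K562 cells; luminescence was measured every 4 h from 2 to 18 h as percent of control (DMSO = 100%, positive control = 0%). A time point is decreased if signal falls significantly (2 sigma). Hits were called by the authors by a rule that is not shown; the count of time points alone does not decide it.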
Legend:
Test in all cases: number of time points (of 5) at which kinase-Nluc abundance scored as decreased, DMSO-normalised (count); higher = more persistent destabilization
Settings in all cases: K562; 2-18 h
[1] = target: ALK (UniProt Q9UM73)
[2] = target: ARAF (UniProt P10398)
[3] = target: AURKA (UniProt O14965)
[4] = target: AURKB (UniProt Q96GD4)
[5] = target: AURKC (UniProt Q9UQB9)
[6] = target: BLK (UniProt P51451)
[7] = target: BMX (UniProt P51813)
[8] = target: BRAF (UniProt P15056)
[9] = test system: BRAF_V600E
[10] = target: BTK (UniProt Q06187)
[11] = target: CAMK2A (UniProt Q9UQM7)
[12] = target: CAMK2G (UniProt Q13555)
[13] = target: CDK10 (UniProt Q15131)
[14] = target: CDK2 (UniProt P24941)
[15] = target: CDK3 (UniProt Q00526)
[16] = target: CDK5 (UniProt Q00535)
[17] = target: CDK6 (UniProt Q00534)
[18] = target: CHEK2 (UniProt O96017)
[19] = target: CSF1R (UniProt P07333)
[20] = target: CSK (UniProt P41240)

Chains of the proteins cited; added tags and fusions are not shown. Lines headed by an entry give the natural chain unless they say otherwise; changes in a name come on top.
UniProt Q9UM73: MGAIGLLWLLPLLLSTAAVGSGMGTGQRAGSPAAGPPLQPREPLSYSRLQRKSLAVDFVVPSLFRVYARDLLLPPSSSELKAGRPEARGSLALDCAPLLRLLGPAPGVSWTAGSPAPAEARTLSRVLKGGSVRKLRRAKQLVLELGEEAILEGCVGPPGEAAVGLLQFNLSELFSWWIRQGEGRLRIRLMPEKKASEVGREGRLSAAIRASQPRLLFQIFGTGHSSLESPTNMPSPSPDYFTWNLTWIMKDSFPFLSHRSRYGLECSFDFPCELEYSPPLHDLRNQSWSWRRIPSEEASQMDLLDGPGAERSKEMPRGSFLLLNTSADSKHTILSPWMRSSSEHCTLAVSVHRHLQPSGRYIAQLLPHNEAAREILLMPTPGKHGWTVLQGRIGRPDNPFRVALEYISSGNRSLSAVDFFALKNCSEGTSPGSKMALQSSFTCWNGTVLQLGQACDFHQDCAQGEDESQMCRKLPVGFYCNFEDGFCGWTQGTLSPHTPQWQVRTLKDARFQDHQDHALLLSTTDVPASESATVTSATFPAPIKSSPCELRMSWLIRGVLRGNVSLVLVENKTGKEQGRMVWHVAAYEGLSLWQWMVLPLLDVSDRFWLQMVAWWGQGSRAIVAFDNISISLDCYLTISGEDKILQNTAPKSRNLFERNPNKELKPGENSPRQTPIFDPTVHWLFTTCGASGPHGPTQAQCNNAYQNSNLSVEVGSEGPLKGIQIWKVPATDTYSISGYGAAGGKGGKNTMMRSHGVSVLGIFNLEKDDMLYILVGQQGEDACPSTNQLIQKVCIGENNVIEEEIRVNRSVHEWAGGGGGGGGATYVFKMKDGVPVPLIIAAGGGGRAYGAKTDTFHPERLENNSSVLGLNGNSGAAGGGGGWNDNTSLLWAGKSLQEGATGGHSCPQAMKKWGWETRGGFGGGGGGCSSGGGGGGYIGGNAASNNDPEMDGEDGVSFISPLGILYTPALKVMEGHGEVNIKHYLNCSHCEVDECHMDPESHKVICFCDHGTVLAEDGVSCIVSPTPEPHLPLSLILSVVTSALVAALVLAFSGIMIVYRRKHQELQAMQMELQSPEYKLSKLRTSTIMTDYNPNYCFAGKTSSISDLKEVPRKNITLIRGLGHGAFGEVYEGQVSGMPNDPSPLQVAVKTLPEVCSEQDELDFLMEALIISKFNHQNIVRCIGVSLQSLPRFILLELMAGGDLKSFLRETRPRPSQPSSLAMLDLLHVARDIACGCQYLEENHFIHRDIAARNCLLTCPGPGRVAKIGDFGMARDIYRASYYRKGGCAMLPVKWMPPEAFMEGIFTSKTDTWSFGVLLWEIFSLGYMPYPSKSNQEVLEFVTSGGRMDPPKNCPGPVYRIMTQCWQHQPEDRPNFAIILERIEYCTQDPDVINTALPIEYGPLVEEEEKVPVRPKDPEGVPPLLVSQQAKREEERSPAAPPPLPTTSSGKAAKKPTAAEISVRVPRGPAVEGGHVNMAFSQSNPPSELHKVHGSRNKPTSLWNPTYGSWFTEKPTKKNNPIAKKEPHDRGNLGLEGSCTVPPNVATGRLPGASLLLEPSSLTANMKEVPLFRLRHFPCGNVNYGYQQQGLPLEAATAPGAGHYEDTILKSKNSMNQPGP
UniProt Q9UQB9: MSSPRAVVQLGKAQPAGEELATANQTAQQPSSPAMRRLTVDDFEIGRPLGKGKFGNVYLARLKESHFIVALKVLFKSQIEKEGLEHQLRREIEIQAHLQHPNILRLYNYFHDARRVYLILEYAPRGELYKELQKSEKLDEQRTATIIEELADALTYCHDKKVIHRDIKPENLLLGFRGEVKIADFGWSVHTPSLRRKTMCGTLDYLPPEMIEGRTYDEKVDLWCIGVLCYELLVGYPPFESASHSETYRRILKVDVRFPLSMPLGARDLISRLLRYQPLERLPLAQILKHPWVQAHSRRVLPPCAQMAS
UniProt P51451: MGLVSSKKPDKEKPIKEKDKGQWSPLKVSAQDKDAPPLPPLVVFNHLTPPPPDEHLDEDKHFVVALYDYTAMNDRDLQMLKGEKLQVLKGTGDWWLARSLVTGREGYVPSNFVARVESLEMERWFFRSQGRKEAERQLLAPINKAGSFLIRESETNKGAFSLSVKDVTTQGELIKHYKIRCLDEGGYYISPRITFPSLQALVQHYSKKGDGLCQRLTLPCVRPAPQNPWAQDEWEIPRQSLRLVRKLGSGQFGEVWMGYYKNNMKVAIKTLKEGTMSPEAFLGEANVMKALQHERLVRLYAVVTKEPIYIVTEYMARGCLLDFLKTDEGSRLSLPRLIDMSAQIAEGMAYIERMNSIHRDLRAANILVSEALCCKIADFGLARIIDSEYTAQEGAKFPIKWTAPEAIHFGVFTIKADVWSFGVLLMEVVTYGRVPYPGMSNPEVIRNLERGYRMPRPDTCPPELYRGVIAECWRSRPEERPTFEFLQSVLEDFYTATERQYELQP
UniProt P51813: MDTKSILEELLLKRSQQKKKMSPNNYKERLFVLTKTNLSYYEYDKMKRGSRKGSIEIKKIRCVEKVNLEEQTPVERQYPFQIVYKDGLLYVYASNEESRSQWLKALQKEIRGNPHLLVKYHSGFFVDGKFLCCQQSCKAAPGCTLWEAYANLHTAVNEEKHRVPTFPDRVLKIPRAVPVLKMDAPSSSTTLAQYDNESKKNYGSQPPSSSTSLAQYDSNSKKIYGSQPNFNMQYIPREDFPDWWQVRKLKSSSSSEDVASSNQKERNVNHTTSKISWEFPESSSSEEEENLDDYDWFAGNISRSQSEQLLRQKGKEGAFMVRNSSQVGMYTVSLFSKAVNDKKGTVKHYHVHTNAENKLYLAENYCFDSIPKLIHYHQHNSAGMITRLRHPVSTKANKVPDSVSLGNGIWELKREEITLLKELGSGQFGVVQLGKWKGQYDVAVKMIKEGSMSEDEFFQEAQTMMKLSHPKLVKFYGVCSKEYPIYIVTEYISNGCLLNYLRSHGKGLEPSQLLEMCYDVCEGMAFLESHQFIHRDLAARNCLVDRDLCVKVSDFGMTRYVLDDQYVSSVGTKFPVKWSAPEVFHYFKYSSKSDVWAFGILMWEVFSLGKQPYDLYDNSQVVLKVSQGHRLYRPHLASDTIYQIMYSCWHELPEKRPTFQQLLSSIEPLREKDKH
UniProt P15056, whole entry, looked up: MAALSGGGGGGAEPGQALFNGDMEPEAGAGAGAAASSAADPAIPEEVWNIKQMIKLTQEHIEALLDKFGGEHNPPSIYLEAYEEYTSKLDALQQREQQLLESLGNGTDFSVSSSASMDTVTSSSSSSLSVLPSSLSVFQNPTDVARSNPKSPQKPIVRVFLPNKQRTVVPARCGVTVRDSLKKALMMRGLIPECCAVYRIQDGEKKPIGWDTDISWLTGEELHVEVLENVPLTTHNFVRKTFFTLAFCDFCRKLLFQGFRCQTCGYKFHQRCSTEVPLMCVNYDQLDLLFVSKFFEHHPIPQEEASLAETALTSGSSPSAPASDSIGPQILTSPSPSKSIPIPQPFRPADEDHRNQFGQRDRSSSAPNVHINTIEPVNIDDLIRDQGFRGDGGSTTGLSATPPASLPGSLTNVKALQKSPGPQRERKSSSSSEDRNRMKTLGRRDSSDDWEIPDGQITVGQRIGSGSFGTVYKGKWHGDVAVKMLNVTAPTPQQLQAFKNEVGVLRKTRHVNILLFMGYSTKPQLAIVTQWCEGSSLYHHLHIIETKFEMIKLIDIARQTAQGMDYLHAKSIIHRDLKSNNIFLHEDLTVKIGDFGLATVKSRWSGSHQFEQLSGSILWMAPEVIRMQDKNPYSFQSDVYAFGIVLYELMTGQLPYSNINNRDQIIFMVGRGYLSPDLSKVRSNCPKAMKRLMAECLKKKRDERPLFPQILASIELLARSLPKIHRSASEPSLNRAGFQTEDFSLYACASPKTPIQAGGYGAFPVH
UniProt Q06187: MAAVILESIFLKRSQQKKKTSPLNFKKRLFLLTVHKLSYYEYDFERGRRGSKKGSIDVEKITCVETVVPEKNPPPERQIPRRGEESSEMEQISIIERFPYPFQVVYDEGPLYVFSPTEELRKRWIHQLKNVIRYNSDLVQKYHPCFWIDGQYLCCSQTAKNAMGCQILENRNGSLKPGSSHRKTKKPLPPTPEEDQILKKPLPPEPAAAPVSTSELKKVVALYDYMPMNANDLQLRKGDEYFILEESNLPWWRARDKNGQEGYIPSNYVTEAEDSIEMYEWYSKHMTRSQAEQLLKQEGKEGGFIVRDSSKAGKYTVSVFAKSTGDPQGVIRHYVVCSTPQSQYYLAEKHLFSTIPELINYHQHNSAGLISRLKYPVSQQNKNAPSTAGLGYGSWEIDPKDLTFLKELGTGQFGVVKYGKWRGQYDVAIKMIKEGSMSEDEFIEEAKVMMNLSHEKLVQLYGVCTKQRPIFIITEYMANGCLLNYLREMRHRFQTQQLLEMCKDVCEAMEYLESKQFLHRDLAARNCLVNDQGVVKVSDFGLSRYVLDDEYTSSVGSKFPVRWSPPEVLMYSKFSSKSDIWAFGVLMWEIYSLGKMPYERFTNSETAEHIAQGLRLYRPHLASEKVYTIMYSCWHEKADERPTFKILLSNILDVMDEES
UniProt Q9UQM7, whole entry: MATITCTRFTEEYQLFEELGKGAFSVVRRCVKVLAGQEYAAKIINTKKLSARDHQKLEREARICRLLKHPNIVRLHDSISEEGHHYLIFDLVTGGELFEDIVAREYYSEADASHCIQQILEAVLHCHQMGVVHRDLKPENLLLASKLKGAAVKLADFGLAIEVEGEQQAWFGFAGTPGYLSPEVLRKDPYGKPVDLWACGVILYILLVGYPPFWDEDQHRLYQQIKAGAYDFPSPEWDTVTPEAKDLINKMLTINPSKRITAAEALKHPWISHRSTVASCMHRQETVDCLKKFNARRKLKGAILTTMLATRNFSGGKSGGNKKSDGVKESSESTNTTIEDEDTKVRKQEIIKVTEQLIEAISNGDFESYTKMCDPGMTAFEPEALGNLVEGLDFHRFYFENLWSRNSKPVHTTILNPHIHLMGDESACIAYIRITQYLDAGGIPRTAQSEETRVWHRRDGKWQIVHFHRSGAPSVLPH
UniProt Q15131: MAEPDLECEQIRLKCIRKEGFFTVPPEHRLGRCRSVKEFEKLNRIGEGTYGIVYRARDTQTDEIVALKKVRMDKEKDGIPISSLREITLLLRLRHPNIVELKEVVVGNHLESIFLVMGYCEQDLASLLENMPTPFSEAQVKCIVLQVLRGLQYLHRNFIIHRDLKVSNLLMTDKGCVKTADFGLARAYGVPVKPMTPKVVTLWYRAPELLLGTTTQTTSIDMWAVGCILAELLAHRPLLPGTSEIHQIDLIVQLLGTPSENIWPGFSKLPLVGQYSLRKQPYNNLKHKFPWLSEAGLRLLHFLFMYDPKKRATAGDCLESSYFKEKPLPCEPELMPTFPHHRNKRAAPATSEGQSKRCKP
UniProt Q00526: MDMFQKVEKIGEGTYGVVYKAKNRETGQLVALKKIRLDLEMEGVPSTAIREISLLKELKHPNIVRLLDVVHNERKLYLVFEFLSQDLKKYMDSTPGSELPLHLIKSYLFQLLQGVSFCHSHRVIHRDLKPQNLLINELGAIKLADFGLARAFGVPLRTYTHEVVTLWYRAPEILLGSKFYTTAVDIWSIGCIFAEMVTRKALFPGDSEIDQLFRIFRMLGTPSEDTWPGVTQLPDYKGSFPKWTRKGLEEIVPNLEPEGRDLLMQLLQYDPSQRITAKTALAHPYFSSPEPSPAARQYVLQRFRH
UniProt Q00534, whole entry: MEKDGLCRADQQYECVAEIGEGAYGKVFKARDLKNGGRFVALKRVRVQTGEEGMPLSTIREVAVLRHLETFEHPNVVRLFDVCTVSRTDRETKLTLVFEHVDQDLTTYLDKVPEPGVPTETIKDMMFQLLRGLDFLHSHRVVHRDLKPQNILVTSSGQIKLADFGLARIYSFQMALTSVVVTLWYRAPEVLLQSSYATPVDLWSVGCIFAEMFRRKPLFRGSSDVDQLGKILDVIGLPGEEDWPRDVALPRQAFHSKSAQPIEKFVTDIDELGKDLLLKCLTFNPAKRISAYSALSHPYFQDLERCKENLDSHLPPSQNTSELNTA
UniProt O96017, whole entry: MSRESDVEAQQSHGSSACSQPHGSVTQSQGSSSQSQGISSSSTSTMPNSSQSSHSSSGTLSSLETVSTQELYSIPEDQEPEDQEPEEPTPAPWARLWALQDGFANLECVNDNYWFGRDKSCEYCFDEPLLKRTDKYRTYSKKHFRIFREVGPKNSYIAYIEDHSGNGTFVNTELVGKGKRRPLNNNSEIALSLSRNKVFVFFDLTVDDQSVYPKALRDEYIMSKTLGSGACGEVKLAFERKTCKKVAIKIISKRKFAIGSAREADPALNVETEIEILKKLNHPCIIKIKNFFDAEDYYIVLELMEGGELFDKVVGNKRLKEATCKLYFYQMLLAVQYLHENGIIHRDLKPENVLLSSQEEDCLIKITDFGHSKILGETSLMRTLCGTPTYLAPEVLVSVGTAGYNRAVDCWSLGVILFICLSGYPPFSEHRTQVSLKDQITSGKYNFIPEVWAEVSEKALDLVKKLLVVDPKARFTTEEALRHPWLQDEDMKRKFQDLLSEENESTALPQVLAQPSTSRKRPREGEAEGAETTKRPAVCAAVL

Row | SMILES | number of time points [1] | number of time points [2] | number of time points [3] | number of time points [4] | number of time points [5] | number of time points [6] | number of time points [7] | number of time points [8] | number of time points [9] | number of time points [10] | number of time points [11] | number of time points [12] | number of time points [13] | number of time points [14] | number of time points [15] | number of time points [16] | number of time points [17] | number of time points [18] | number of time points [19] | number of time points [20]
1 | C=C(CC[C@@H](C(=O)O)[C@H]1[C@H](O)C[C@@]2(C)C3=C(CC[C@]12C)[C@@]1(C)CC[C@H](OC(C)=O)C(C)(C)[C@@H]1CC3)C(C)C [Pachymic acid] (10 µM) | 0 | 0 | 0 | 0 | 0 | 0 | 0 | 0 | 0 | 0 | 0 | 0 | 0 | 0 | 0 | 0 | 0 | 0 | 0 | 0
2 | Cc1cccc(-c2[nH]ncc2-c2ccc(F)c(-c3cnn(CCO)c3)c2)n1 (10 µM) | 0 | 0 | 0 | 0 | 0 | 0 | 0 | 0 | 0 | 0 | 0 | 0 | 0 | 0 | 0 | 0 | 0 | 0 | 0 | 0
3 | CC1CCc2c(cc(Br)c(F)c2Br)N1C=O (stereo not given) (10 µM) | 0 | 0 | 0 | 0 | 0 | 0 | 0 | 0 | 0 | 0 | 0 | 0 | 0 | 0 | 0 | 0 | 0 | 0 | 0 | 0
4 | Nc1ccc(-c2cnc(N)c(-c3ccc(Cl)cc3)c2)cn1 (10 µM) | 0 | 0 | 0 | 0 | 0 | 0 | 0 | 0 | 0 | 0 | 0 | 0 | 0 | 0 | 0 | 0 | 0 | 0 | 0 | 0
5 | CC(=O)c1c(C)cc2cccc(O)c2c1O [Nepodin] (10 µM) | 0 | 0 | 0 | 0 | 0 | 0 | 0 | 0 | 0 | 0 | 0 | 0 | 0 | 0 | 0 | 0 | 0 | 0 | 0 | 0
6 | CC1=C(C(=O)O)N2C(=O)[C@@H](NC(=O)[C@H](N)C3=CCC=CC3)[C@H]2SC1 [Cephradine] (10 µM) | 0 | 0 | 0 | 0 | 0 | 0 | 0 | 0 | 0 | 0 | 0 | 0 | 0 | 0 | 0 | 0 | 0 | 0 | 0 | 0
7 | CC1(C)C(O[C@@H]2OC[C@@H](O)[C@H](O)[C@H]2O)CC[C@]23CC24CC[C@]2(C)[C@@H]([C@@]5(C)CC[C@@H](C(C)(C)O)O5)[C@H](O)C[C@@]2(C)C4C[C@@H](O[C@@H]2O[C@H](CO)[C@@H](O)[C@H](O)[C@H]2O)C13 (stereo not given in full) [Astragaloside IV] (10 µM) | 0 | 0 | 0 | 0 | 0 | 0 | 0 | 0 | 0 | 0 | 0 | 0 | 0 | 0 | 0 | 0 | 0 | 0 | 0 | 0
8 | Cn1ncc(Cl)c1-c1cc(C(=O)N[C@H](CN)Cc2ccc(F)c(F)c2)oc1Cl [Uprosertib] (10 µM) | 0 | 0 | 0 | 0 | 0 | 0 | 0 | 0 | 0 | 0 | 0 | 0 | 0 | 0 | 0 | 0 | 0 | 0 | 0 | 0
9 | O=C([O-])c1cc2ccccc2c(Cc2c(O)c(C(=O)[O-])cc3ccccc23)c1O.[Na+].[Na+] [Pamoic acid (disodium)] (10 µM) | 0 | 0 | 0 | 0 | 0 | 0 | 0 | 0 | 0 | 0 | 0 | 0 | 0 | 0 | 0 | 0 | 0 | 0 | 0 | 0
10 | Cc1cccc(Oc2cnc(=O)[nH]c2)c1 [Tolimidone] (10 µM) | 0 | 0 | 0 | 0 | 0 | 0 | 0 | 0 | 0 | 0 | 0 | 0 | 0 | 0 | 0 | 0 | 0 | 0 | 0 | 0
11 | CN(C)CCSSCCNC(=O)C1CCN(C(=O)CSc2ccc(Cl)cc2)CC1 (10 µM) | 0 | 0 | 0 | 0 | 0 | 0 | 0 | 0 | 0 | 0 | 0 | 0 | 0 | 0 | 0 | 0 | 0 | 0 | 0 | 0
12 | CNC(=O)c1c(F)cccc1Nc1nc(Nc2cc3c(cc2OC)CCN3C(=O)CN(C)C)nc2[nH]ccc12 (10 µM) | 0 | 0 | 0 | 0 | 0 | 4 | 0 | 0 | 0 | 0 | 0 | 0 | 0 | 0 | 0 | 0 | 0 | 0 | 0 | 0
13 | CN1C(=O)N[C@H](Cc2c[nH]c3c(Cl)cccc23)C1=O [Necrostatin 2] (10 µM) | 0 | 0 | 0 | 0 | 0 | 0 | 0 | 0 | 0 | 0 | 0 | 0 | 0 | 0 | 0 | 0 | 0 | 0 | 0 | 0
14 | Cc1nc2sccn2c(=O)c1CCN1CCC(=C(c2ccccc2)c2ccc(F)cc2)CC1 (10 µM) | 0 | 0 | 0 | 0 | 0 | 0 | 0 | 0 | 0 | 0 | 0 | 0 | 0 | 0 | 0 | 0 | 0 | 0 | 0 | 0
15 | NC(=O)c1nc(Nc2ccccc2)sc1NC(=O)C1CCCCC1 (10 µM) | 0 | 0 | 0 | 0 | 0 | 0 | 0 | 0 | 0 | 0 | 0 | 0 | 0 | 0 | 0 | 0 | 0 | 0 | 0 | 0
16 | Nc1nc2ccc(Cl)cc2c2nc(-c3ccco3)nn12 (10 µM) | 0 | 0 | 0 | 0 | 0 | 0 | 0 | 0 | 0 | 0 | 0 | 0 | 0 | 0 | 0 | 0 | 0 | 0 | 0 | 0
17 | Cc1cc(CN2CCN(c3c(Br)cnc4nc(-c5ccc(N6CCN(C)CC6)cc5)[nH]c34)CC2)no1 (2.5 µM) | 0 | 0 | 0 | 0 | 0 | 0 | 0 | 0 | 0 | 0 | 0 | 0 | 0 | 0 | 0 | 0 | 0 | 0 | 0 | 0
18 | CNC(=O)c1cc(COc2nnc(Nc3ccc(Cl)cc3)c3ccoc23)ccn1 [Telatinib] (10 µM) | 0 | 0 | 0 | 0 | 0 | 0 | 0 | 0 | 0 | 0 | 0 | 0 | 0 | 0 | 0 | 0 | 0 | 0 | 0 | 0
19 | COc1ncc(Cl)cc1S(=O)(=O)Nc1ccc(F)c(C#Cc2cnc(N)nc2)c1F (2.5 µM) | 0 | 0 | 0 | 0 | 0 | 0 | 5 | 0 | 0 | 0 | 0 | 0 | 0 | 0 | 0 | 0 | 0 | 0 | 0 | 0
20 | Oc1cc2c(cc1O)C(Cc1cccc3ccccc13)NCC2 (stereo not given) (10 µM) | 0 | 0 | 0 | 0 | 0 | 0 | 0 | 0 | 0 | 0 | 0 | 0 | 0 | 0 | 0 | 0 | 0 | 0 | 0 | 0
21 | C[C@H](c1ccnc(Nc2nc3ccc(-c4cc(N(C)C)ncn4)cc3[nH]2)c1)N1CCN(C(=O)CC(F)(F)F)CC1 (2.5 µM) | 0 | 0 | 0 | 0 | 0 | 0 | 0 | 0 | 0 | 0 | 0 | 0 | 0 | 0 | 0 | 0 | 0 | 0 | 0 | 0
22 | C[C@@H]1CC[C@@H](Nc2nc(NC(C)(C)C)ncc2C(N)=O)C[C@H]1O (10 µM) | 0 | 0 | 0 | 0 | 0 | 0 | 0 | 0 | 0 | 0 | 0 | 0 | 0 | 0 | 0 | 0 | 0 | 0 | 0 | 0
23 | O=C(NOCC(O)CO)c1cc(Br)c(F)c(F)c1Nc1ccc(I)cc1F (stereo not given) (2.5 µM) | 0 | 0 | 0 | 0 | 0 | 0 | 0 | 0 | 0 | 0 | 0 | 0 | 0 | 0 | 0 | 0 | 0 | 0 | 0 | 0
24 | NC(=O)c1nnc(N[C@@H]2CCCC[C@@H]2N)nc1Nc1cccc2cc[nH]c12 (10 µM) | 0 | 0 | 0 | 0 | 0 | 1 | 1 | 0 | 0 | 0 | 0 | 0 | 0 | 0 | 0 | 0 | 0 | 0 | 0 | 0

Some of the entries above in a different format.
Row,SMILES,number of time points [1],number of time points [2],number of time points [3],number of time points [4],number of time points [5],number of time points [6],number of time points [7],number of time points [8],number of time points [9],number of time points [10],number of time points [11],number of time points [12],number of time points [13],number of time points [14],number of time points [15],number of time points [16],number of time points [17],number of time points [18],number of time points [19],number of time points [20]
6,CC1=C(C(=O)O)N2C(=O)[C@@H](NC(=O)[C@H](N)C3=CCC=CC3)[C@H]2SC1 [Cephradine] (10 µM),0,0,0,0,0,0,0,0,0,0,0,0,0,0,0,0,0,0,0,0
22,C[C@@H]1CC[C@@H](Nc2nc(NC(C)(C)C)ncc2C(N)=O)C[C@H]1O (10 µM),0,0,0,0,0,0,0,0,0,0,0,0,0,0,0,0,0,0,0,0

Source: the supplement of paper PMC12823440, “Inhibitors supercharge kinase turnover through native proteolytic circuits” (Nature, 2025)
